Values joined by “and” are separate entries in the source; they are usually repeats but may differ in a detail not shown here. Identical values can stand only once. The list shows a part of the results. Each value is one well over the wells without odorant, computed here; the data are noisy.
What was measured:
Assay in all cases: odorant receptor activation (CRE luciferase / Renilla) (fold of no-odor wells); higher = more activation
Details in all cases: 100 µM
[1] = system: OR51A2 clone 1577
[2] = system: OR51A4 G45C/L227P/R267G clone 1166
[3] = system: OR51B2 clone 1551
[4] = system: OR51B4 V36I/M147T clone 1552
[5] = system: OR51B5 clone 1553
[6] = system: OR51B6 clone 1554
[7] = system: OR51D1 clone 1206
[8] = system: OR51E1 S11N clone 1532
[9] = system: OR51E1 clone 1129
[10] = system: OR51E2 clone 1205

SMILES	odorant receptor activation [1]	odorant receptor activation [2]	odorant receptor activation [3]	odorant receptor activation [4]	odorant receptor activation [5]	odorant receptor activation [6]	odorant receptor activation [7]	odorant receptor activation [8]	odorant receptor activation [9]	odorant receptor activation [10]
COC(=O)c1ccccc1O [methyl salicylate]	0.67	0.891	0.771	0.819	0.839	0.923	0.705	0.973	1.1	0.96
CC1=CCC(C(C)(C)O)CC1 (stereo not given) [terpineol]	0.822	1.24	0.814	1.06	1.01	2.47	1.33	0.985	1.24	0.906
COc1cc(C)ccc1O [2-methoxy-4-methylphenol]	0.712	1	0.859	0.735	0.66	0.854	1.03	0.76	1.26	0.885
c1cnccn1 [pyrazine]	0.782	0.961	1.07	0.908	0.883	0.615	1.33	0.813	0.874	0.68
CCCCCOC(C)=O [n-amyl acetate]	1.05	0.498	1.01	1.17	1.02	1.89	0.8	0.701 and 0.877	0.742	0.784
C=CCc1ccc(O)c(OC)c1 [eugenol]	1.35	3.27 and 1.37	1.34	1.31	1.17	1.88	3.15 and 1.29	1.73 and 1.04 and 1.43	2.11 and 1.31	1.52 and 1.29
CC12CCC(CC1)C(C)(C)O2 [cineole]	0.618	1.24	1.12	1.64	0.699	1	0.986	1.04	0.984	1.17
CCC1(O)C2(C)CCC(C2)C1(C)C (stereo not given) [2-ethylfenchol]	0.832	1.43	0.835	0.773	0.924	0.962	0.886	1.05	1.42	0.733
CCCCCCCCOC(C)=O [octyl acetate]	0.718	0.953	0.981	0.809	0.964	0.64	0.888	0.983	1.32	1.17
CCCCCCOC(=O)CCC [hexyl butyrate]	0.849	0.639	0.775	0.912	0.748	0.747	0.803	0.998 and 0.837	1.01	0.981
c1ccc(Oc2ccccc2)cc1 [diphenyl ether]	0.915	0.865	0.902	0.945	0.882	1.14	0.842	1.22	1	0.922
O=C1CCCCCCCCCCCCCCO1 [pentadecalactone]	0.568	0.876	1.05	0.7	0.992	0.605	1.14	0.89	0.746	0.737
CC/C=C\CCO [cis-3-hexen-1-ol]	1.04	1.09	1.15	1.43	1.04	1.17	1.2	0.826	1.1	1.26
CC(=O)OC1CC2CCC1(C)C2(C)C (stereo not given) [isobornyl acetate]	0.838	1.02	0.817	0.773	0.951	1.19	0.812	0.84 and 0.996	1.06	1.01
O=C1CCCCCCCCCCCC(=O)OCCO1 [ethylene brassylate]	1.01	1.82	1.57	2.29	1.12	1.96	1.47	1.12	1.41	1.18
COc1ccccc1O [guaiacol]	0.713	0.987	0.646	0.992	0.764	0.649	0.75	0.824 and 1.35	1.08	1.02
CC(=O)C(C)=O [diacetyl]	0.921	0.962	0.894	0.918	0.821	1.25	1.11	1.15	1.03	0.986
CCCCCCCC=CC=O [2-decenal]	1.02	1.35	0.901	0.95	1	1.2	1.44	1.58	1.2	0.667
CC1CCC(C(C)C)C(O)C1 (single isomer, unassigned; (-)) [(-)-menthol]	1.03	1.14	0.867	0.989	1.24	1.01	1.32	0.758	1.15	0.903
CC(C)CC(=O)O [isovaleric acid]	0.768	0.999	0.96	0.992	1.1	0.893	1.15	1	2.17	1.28
C=CCSCC=C [diallyl sulfide]	0.878	0.783	0.877	0.982	0.844	1.04	1.05	1.45	1.29	0.868
CCCCCCCCCCC=O [undecanal]	1	0.882	0.994	1.02	1	1.71	1.22	1.02	1.31	0.9
C=CCc1ccc(OC)c(OC)c1 [eugenol methyl ether]	0.589	1.25	0.737	0.86	1.04	0.532	1.36	1.37	1.68	1.52
CC(C)C=O [isobutyraldehyde]	0.726	1.08	0.741	0.828	0.902	0.882	0.99	0.85 and 1.08	1.11	1.06

SMILES	odorant receptor activation [1]	odorant receptor activation [2]	odorant receptor activation [3]	odorant receptor activation [4]	odorant receptor activation [5]	odorant receptor activation [6]	odorant receptor activation [7]	odorant receptor activation [8]	odorant receptor activation [9]	odorant receptor activation [10]
CCCCCCCOC(C)=O [heptyl acetate]	0.859	0.869	0.656	0.861	0.698	0.719	1.04	0.887 and 1.28	1.18	1.24
C=CCc1ccc(OC(C)=O)c(OC)c1 [eugenol acetate]	1.93	1.45	2.13	1.99	1.79	3.38	1.58	1.34	1.24	1.8
CC(=O)OCC=C(C)CCC=C(C)C [geranyl acetate]	0.984	0.772	1.1	1.54	1.12	1.04	0.663	0.845 and 1.38	1.41	1.04
CC(=O)OC(C)(C)C1CC=C(C)CC1 (stereo not given) [terpinyl acetate]	0.776	1.22	0.959	1.06	1.06	2.03	1.32	1.03	1.23	0.92
CC1CCC(C(C)C)C(O)C1 (single isomer, unassigned; (+)) [(+)-menthol]	0.88	1.29	0.715	0.705	0.807	0.978	0.919	1.14	1.55	1.14
C=C(C)C1CC=CCC1 (stereo not given) [r-limonene]	1.16		1.04	0.856	1.15	0.846	1.48 and 0.837	1.14 and 0.794 and 1	1.08 and 0.773	1 and 0.711
CCCC(=O)O [butyric acid]	0.67	1.21	1.15	1.89	0.602	0.896	1.2	1.45	1.13	1.28
CC1=NC(C)SC1C (stereo not given)		1.09					1.08	0.906 and 1.05	0.695	1.1
CC1COCc2cc3c(cc21)C(C)(C)C(C)C3(C)C (stereo not given) [galaxolide]		0.796	0.269 and 0.76	0.986 and 1.46	1.04 and 1.14		0.595	1.04 and 1.34	0.806	1.06
C=C(C)C1CCC2=CC(=O)CC(C)C2(C)C1 (stereo not given) [amyl laurate]	0.981		2.13	2.28	2.29	1.3				
CC12C=CCC1C1CCC3CC(=O)CCC3(C)C1CC2 (stereo not given) [androstenone]		5.76					6.49	1.07	1.11	2.77
O=CCc1ccccc1 [phenyl acetaldehyde]	1.93	1.25	1.14	0.895	1.24	1.4	1.36	0.738	0.794	0.695
CCCCCC(C)=O [2-heptanone]		0.935					1.23	0.989 and 0.713	1.04	1.18
CCCCCCC=O [heptaldehyde]	0.68		0.737	0.954	0.786	0.629	0.554 and 0.746		0.587 and 1.05	0.545 and 1.17
CC(C)C(=O)O [isobutyric acid]	0.783	0.825	0.933	0.946	1.08	1.15	0.85	1.11 and 1.04	1.12	1.42
COC(=O)c1ccccc1 [methyl benzoate]		0.556					0.997	0.794 and 1.2	1.17	0.956
CC(C)(O)CCCC1=CCC(C=O)CC1 (stereo not given) [lyral]	1		0.962	1.09	1.12	2.08				
COc1cc(C=O)ccc1O [vanillin]	0.64	1.26	1.1	1.72	0.463	0.731	1.05	1.03	1.22	1.19
C=C(C)C1CC=C(C)C(=O)C1 (stereo not given) [r-carvone]	0.715	1.05	1.08	0.838	0.927	0.737	1.41	1.01	0.961	0.928
CCCCCCCCC=O [nonyl aldehyde]	0.857	1.01	1.57	0.847	1.04	0.747	1.02	1	1.35	1.33
CC(C)(C)c1ccc(CCC=O)cc1 [bourgeonal]		0.798					0.68	0.776	0.684	0.765
CCCCO [1-butanol]	0.842	0.994	0.822	0.803	0.699	1.01	1.1	1.14	1.38	0.867
CC=Cc1ccc(O)c(OC)c1 [isoeugenol]	3.2	0.964	3.11	4.04	5.33	0.922	0.827	0.901 and 1.36	1.05	1.17
